Source: PubChem BioAssay AID1259425 (University of Nebraska Medical Center, 2018)
Here is one part, drawn at random, of about 14,000 reagents. The record does not give: the time to read-out.

Test: 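Compare each knockdown with KSR1 silencing using changes in marker transcripts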 (primary screen)
System: HCT116 human colon cancer cells
Knock-down reagent: siRNA pool against human genes, 50 nM siRNA
Measured: 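After 50 nM siRNA pool, branched-DNA assay measures six marker transcripts per well, minus blank, normalised to the geometric mean of two housekeeping transcripts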
Reading the numbers: BNIP3L mRNA: higher = more BNIP3L transcript after knockdown; NDRG1 mRNA: higher = more NDRG1 transcript after knockdown; BNIP3 mRNA: higher = more BNIP3 transcript after knockdown; ALDOC mRNA: higher = more ALDOC transcript after knockdown; ACSL5 mRNA: higher = more ACSL5 transcript after knockdown

| gene symbol | BNIP3L mRNA, set 1 | NDRG1 mRNA, set 1 | BNIP3 mRNA, set 1 | ALDOC mRNA, set 1 | ACSL5 mRNA, set 1 |
| --- | --- | --- | --- | --- | --- |
| MAPKAPK5-AS1 (MAPKAPK5 antisense RNA 1) | 0.0941 | 0.176 | 0.444 | 0.025 | 0.212 |
| RENBP (renin binding protein) | 0.103 | 0.248 | 0.228 | 0.0413 | 0.118 |
| CDK3 (cyclin dependent kinase 3) | 0.168 | 0.128 | 0.322 | 0.00516 | 0.216 |
| GPR42 (G protein-coupled receptor 42) | 0.453 | 0.526 | 1.02 | 0.103 | 0.222 |
| CSGALNACT1 (chondroitin sulfate N-acetylgalactosaminyltransferase 1) | 0.166 | 0.373 | 0.505 | 0.0543 | 0.328 |
| BPIFB2 (BPI fold containing family B member 2) | 0.188 | 0.316 | 0.45 | 0.0557 | 0.311 |
| PRLH (prolactin releasing hormone) | 0.159 | 0.29 | 0.39 | 0.0467 | 0.427 |
| FAM50A (family with sequence similarity 50 member A) | 0.11 | 0.355 | 0.268 | 0.0174 | 0.22 |
| SRPX (sushi repeat containing protein X-linked) | 0.0525 | 0.0911 | 0.292 | 0.0297 | 0.0778 |
| SLC29A1 | 0.074 | 0.0965 | 0.409 | 0.0459 | 0.0961 |
| CCZ1 (CCZ1 vacuolar protein trafficking and biogenesis associated) | 0.106 | 0.286 | 0.296 | 0.0289 | 0.278 |
| PLP2 (proteolipid protein 2) | 0.198 | 0.352 | 0.322 | 0.0743 | 0.151 |
| PLEKHM2 (pleckstrin homology and RUN domain containing M2) | 0.191 | 0.47 | 0.347 | 0.0239 | 0.173 |
| TBX18 (T-box transcription factor 18) | 0.0845 | 0.17 | 0.277 | 0.0265 | 0.0758 |
| ZBBX (zinc finger B-box domain containing) | 0.129 | 0.427 | 0.384 | 0.00572 | 0.278 |
| UGT2B11 (UDP glucuronosyltransferase family 2 member B11) | 0.0502 | 0.0447 | 0.301 | 0.0307 | 0.0799 |
| COL4A1 (collagen type IV alpha 1 chain) | 0.0592 | 0.0752 | 0.262 | 0.0298 | 0.103 |
| MFSD6 (major facilitator superfamily domain containing 6) | 0.124 | 0.151 | 0.304 | 0.0208 | 0.167 |
| RCE1 (Ras converting CAAX endopeptidase 1) | 0.0845 | 0.301 | 0.219 | 0.0442 | 0.348 |
| TMEM33 (transmembrane protein 33) | 0.0823 | 0.5 | 0.297 | 0.019 | 0.167 |
| MICALL2 (MICAL like 2) | 0.254 | 0.161 | 0.342 | 0.108 | 0.124 |
| LRP1B (LDL receptor related protein 1B) | 0.0786 | 0.198 | 0.298 | 0.0371 | 0.296 |
| CCDC28B (coiled-coil domain containing 28B) | 0.0746 | 0.125 | 0.301 | 0.0252 | 0.167 |
| TSC22D3 (TSC22 domain family member 3) | 0.124 | 1.12 | 0.371 | 0.0202 | 0.239 |
| COL5A1 (collagen type V alpha 1 chain) | 0.118 | 0.145 | 0.387 | 0.0294 | 0.132 |
| APOBR (apolipoprotein B receptor) | 0.147 | 0.415 | 0.277 | 0.0253 | 0.184 |
| AP3B1 (adaptor related protein complex 3 subunit beta 1) | 0.0576 | 0.121 | 0.406 | 0.00996 | 0.127 |
| TTBK2 (tau tubulin kinase 2) | 0.0855 | 0.432 | 0.428 | 0.00851 | 0.27 |
| C8G (complement C8 gamma chain) | 0.0816 | 0.0602 | 0.298 | 0.0358 | 0.062 |
| CLCN7 (Cl-/H+ antiporter 7) | 0.305 | 0.33 | 0.662 | 0.0718 | 0.157 |
| BZW2 (basic leucine zipper and W2 domains 2) | 0.114 | 0.0871 | 0.225 | 0.0378 | 0.26 |
| MINDY4 (MINDY lysine 48 deubiquitinase 4) | 0.371 | 0.345 | 0.861 | 0.1 | 0.312 |
| GFRA3 (GDNF family receptor alpha 3) | 0.187 | 0.327 | 0.295 | 0.0283 | 0.178 |
| MAP2K2 (mitogen-activated protein kinase kinase 2) | 0.0611 | 0.159 | 0.0968 | 0.00521 | 0.162 |
| ABL2 (ABL proto-oncogene 2, non-receptor tyrosine kinase) | 0.122 | 0.127 | 0.235 | 0.0101 | 0.224 |
| DHX35 (DEAH-box helicase 35) | 0.248 | 0.239 | 0.646 | 0.0828 | 0.391 |
| POU2F3 (POU class 2 homeobox 3) | 0.161 | 0.14 | 0.538 | 0.0314 | 0.095 |
| THNSL1 (threonine synthase like 1) | 0.106 | 0.455 | 0.387 | 0.00866 | 0.383 |
| KLK3 (kallikrein related peptidase 3) | 0.0982 | 0.414 | 0.286 | 0.0319 | 0.132 |
| TGOLN2 (trans-golgi network protein 2) | 0.12 | 0.276 | 0.284 | 0.0297 | 0.208 |
| TOP3A (DNA topoisomerase III alpha) | 0.0923 | 0.346 | 0.331 | 0.0766 | 0.133 |
| OPRD1 (opioid receptor delta 1) | 0.146 | 0.698 | 0.274 | 0.0409 | 0.311 |
| CCDC85B (coiled-coil domain containing 85B) | 0.147 | 0.206 | 0.192 | 0.00926 | 0.123 |
| TRAF7 (TNF receptor associated factor 7) | 0.234 | 0.265 | 0.188 | 0.0365 | 0.496 |
| TOMM40 (translocase of outer mitochondrial membrane 40) | 0.178 | 0.309 | 0.427 | 0.0378 | 0.185 |
| ACTR3 (actin related protein 3) | 0.111 | 0.066 | 0.335 | 0.0397 | 0.0624 |
| GNG7 (G protein subunit gamma 7) | 0.149 | 0.557 | 0.261 | 0.0226 | 0.18 |
| PLAAT4 (phospholipase A and acyltransferase 4) | 0.0914 | 0.0949 | 0.31 | 0.0139 | 0.171 |
| QPRT (quinolinate phosphoribosyltransferase) | 0.109 | 0.0797 | 0.457 | 0.0379 | 0.267 |
| ARF4 (ARF GTPase 4) | 0.0939 | 0.148 | 0.231 | 0.0291 | 0.104 |
| CMIP (c-Maf inducing protein) | 0.0544 | 0.165 | 0.266 | 0.0199 | 0.161 |
| ABCG8 (ATP binding cassette subfamily G member 8) | 0.171 | 0.0616 | 0.184 | 0.0127 | 0.291 |
| ANKRD16 (ankyrin repeat domain 16) | 0.0748 | 0.112 | 0.267 | 0.0168 | 0.0718 |
| MKRN2 (makorin ring finger protein 2) | 0.108 | 0.075 | 0.265 | 0.0221 | 0.161 |
| CDC42BPB (CDC42 binding protein kinase beta) | 0.0869 | 0.0893 | 0.419 | 0.00506 | 0.142 |
| TMC1 (transmembrane channel like 1) | 0.0928 | 0.185 | 0.267 | 0.0206 | 0.067 |
| GPR3 (G protein-coupled receptor 3) | 0.144 | 0.388 | 0.197 | 0.026 | 0.164 |
| PSME1 (proteasome activator subunit 1) | 0.0856 | 0.126 | 0.275 | 0.0292 | 0.0888 |
| LRRC2 (leucine rich repeat containing 2) | 0.0758 | 0.301 | 0.388 | 0.0599 | 0.437 |
| MDK (midkine) | 0.0875 | 0.286 | 0.258 | 0.0188 | 0.135 |
| BNC2 (basonuclin zinc finger protein 2) | 0.0767 | 0.149 | 0.304 | 0.0414 | 0.159 |
| RGS1 (regulator of G protein signaling 1) | 0.0837 | 0.0825 | 0.239 | 0.0206 | 0.189 |
| KRABD1 (KRAB domain containing 1) | 0.0979 | 0.22 | 0.287 | 0.00733 | 0.172 |

Only “ACSL5 mRNA, set 1” (5 entries from above):
MKRN2 (makorin ring finger protein 2)	0.161
CDC42BPB (CDC42 binding protein kinase beta)	0.142
TMC1 (transmembrane channel like 1)	0.067
GPR3 (G protein-coupled receptor 3)	0.164
PSME1 (proteasome activator subunit 1)	0.0888
